In the assay the target is T1, HDAC7 (UniProt Q8WUI4).
T1 sequence: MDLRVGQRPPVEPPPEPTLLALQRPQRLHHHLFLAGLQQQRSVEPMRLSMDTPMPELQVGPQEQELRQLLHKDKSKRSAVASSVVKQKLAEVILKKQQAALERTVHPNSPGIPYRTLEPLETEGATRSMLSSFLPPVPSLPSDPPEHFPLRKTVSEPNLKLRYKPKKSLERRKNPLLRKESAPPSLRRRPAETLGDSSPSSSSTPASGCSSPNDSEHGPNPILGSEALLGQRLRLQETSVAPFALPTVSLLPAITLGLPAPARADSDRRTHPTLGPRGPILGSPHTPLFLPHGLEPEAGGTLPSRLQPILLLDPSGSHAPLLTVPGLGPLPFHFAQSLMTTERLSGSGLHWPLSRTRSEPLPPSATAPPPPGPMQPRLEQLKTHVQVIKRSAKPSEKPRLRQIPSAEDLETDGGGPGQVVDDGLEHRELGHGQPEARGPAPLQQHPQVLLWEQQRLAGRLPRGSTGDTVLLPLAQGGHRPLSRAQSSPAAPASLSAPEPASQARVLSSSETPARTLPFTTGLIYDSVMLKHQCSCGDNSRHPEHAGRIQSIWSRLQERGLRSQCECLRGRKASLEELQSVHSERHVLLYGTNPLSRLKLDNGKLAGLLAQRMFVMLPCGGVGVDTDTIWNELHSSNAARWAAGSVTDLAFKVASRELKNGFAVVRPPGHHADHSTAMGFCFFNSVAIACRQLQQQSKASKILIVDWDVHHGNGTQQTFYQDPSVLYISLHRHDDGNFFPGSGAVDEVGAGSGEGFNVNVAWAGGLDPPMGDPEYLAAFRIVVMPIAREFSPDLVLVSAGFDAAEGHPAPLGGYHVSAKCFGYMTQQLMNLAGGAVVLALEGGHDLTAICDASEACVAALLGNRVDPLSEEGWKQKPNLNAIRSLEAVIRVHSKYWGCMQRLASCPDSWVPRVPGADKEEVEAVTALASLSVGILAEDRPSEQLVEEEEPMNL
Nature of the assay: co-IP; lysates of GSC20, in part transfected with the indicated plasmids or vectors (Figure 2B, K, N, Q; TRIM28 knock-down in Figure 2Q).

These are yes or no findings as the source states them, for the method shown. Binding seen in cells or lysates may run through a third protein. Binding calls can cover weak binding; strength is not graded here.

Consider “RING domain of MYCBP2 (human) (domain or fragment)”, for which the binding entry is “binds”.

The record behind these values is publication PMC11610139.
